Measurements from US7772177B2 (Aegera Therapeutics, Inc., priority 2005, dated 2010).

Experiment: general procedure: Fmoc solid-phase peptide synthesis; 2-chlorotrityl chloride resin; DIC (coupling to 4'-(aminomethyl)fluorescein)
Conditions: whole synthesis

Fmoc-Ala-Val-Pro-Phe-Tyr(t-Bu)-Leu-Pro-Gly(t-Bu)-Gly-OH
final HPLC purity: >95% pure
